# US8394969B2, “Cyclic benzimidazole derivatives useful as anti-diabetic agents” (Merck Sharp & Dohme Corp., priority 2008, dated 2013)
# The chains behind the UniProt entries cited, without tags or fusion partners. Where a name states a change or a piece, a line headed by the entry shows the natural chain unless it says otherwise.
# UniProt Q13131: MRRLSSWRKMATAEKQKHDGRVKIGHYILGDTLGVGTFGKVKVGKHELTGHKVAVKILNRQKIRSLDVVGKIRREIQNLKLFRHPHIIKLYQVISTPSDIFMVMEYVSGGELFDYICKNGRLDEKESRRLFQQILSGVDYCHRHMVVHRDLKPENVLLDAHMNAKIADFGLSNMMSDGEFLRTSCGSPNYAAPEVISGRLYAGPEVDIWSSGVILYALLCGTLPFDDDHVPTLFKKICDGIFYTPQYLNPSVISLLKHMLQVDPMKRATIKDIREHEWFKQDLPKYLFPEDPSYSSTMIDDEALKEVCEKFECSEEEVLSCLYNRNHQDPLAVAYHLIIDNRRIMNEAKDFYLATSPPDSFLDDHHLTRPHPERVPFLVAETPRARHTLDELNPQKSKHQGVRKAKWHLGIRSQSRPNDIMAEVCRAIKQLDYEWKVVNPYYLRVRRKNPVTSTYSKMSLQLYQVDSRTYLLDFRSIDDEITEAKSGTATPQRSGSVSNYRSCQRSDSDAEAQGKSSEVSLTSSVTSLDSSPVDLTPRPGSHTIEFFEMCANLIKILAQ
# UniProt Q9Y478: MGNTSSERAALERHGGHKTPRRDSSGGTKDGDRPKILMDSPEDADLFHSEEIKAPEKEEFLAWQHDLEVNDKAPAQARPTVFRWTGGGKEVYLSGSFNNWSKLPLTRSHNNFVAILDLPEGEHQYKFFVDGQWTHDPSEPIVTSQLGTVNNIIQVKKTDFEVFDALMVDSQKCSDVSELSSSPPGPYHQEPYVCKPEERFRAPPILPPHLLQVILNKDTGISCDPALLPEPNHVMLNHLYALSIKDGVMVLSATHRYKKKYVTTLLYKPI
# Some results were stated once for a whole list of compounds, not compound by compound.
# Molecular target: recombinant human AMPK complex 1 (containing α1β1γ1) (Homo sapiens, UniProt Q13131+Q9Y478)
# Experiment: […] (in vitro AMPK activation assay)
# Type: biochemical
# Settings: recombinant human AMPK complex 1 (α1β1γ1)
Structure (SMILES),EC50 [µM],% Maximum AMP Activation of human AMPK Complex 1 (basal activity subtracted)
"Cc1ccc(Oc2nc3cc(-c4ccc(-c5ccc(C#N)cc5)cc4)c(Cl)cc3[nH]2)cc1C(=O)O [Example 103, 5-[6-Chloro-5-(4′-cyano-biphenyl-4-yl)-1H-benzoimidazol-2-yloxy]-2-methyl-benzoic acid]",< 10,–
"Cc1ccc(Oc2nc3cc(-c4ccc(-c5ccc(O)cc5)cc4)c(Cl)cc3[nH]2)cc1C(=O)O [Example 104, 5-[6-Chloro-5-(4-hydroxy-biphenyl-4-yl)-1H-benzoimidazol-2-yloxy]-2-methyl-benzoic acid]",< 10,–
"Cc1ccc(Oc2nc3cc(-c4ccc(-c5ccc(F)cc5)cc4)c(Cl)cc3[nH]2)cc1C(=O)O [Example 105, 5-[6-Chloro-5-(4′-fluoro-biphenyl-4-yl)-1H-benzoimidazol-2-yloxy]-2-methyl-benzoic acid]",< 10,–
"COc1ccccc1C#Cc1cc2nc(Oc3ccc(C)c(C(=O)O)c3)[nH]c2cc1Cl [Example 106, 5-[6-Chloro-5-(2-methoxy-phenylethynyl)-1H-benzoimidazol-2-yloxy]-2-methyl-benzoic acid]",< 10,–
"COC(=O)c1cc(Oc2nc3cc(C#Cc4ccccc4OC)c(Cl)cc3[nH]2)ccc1C [Example 107, 5-[6-Chloro-5-(2-methoxy-phenylethynyl)-1H-benzoimidazol-2-yloxy]-2-methyl-ester]",< 10,–
"COc1cccc(C#Cc2cc3nc(Oc4ccc(C)c(C(=O)O)c4)[nH]c3cc2Cl)c1 [Example 108, 5-[6-Chloro-5-(3-methoxy-phenylethynyl)-1H-benzoimidazol-2-yloxy]-2-methyl-benzoic acid]",< 10,–
"COC(=O)c1cc(Oc2nc3cc(C#Cc4cccc(OC)c4)c(Cl)cc3[nH]2)ccc1C [Example 109, 5-[6-Chloro-5-(3-methoxy-phenylethynyl)-1H-benzoimidazol-2-yloxy]-2-methyl-benzoic acid methyl ester]",< 10,–
"Cc1ccc(Oc2nc3cc(C#Cc4cccc(Cl)c4)c(Cl)cc3[nH]2)cc1C(=O)O [Example 110, 5-[6-Chloro-5-(3-chloro-phenylethynyl)-1H-benzoimidazol-2-yloxy]-2-methyl-benzoic acid]",< 10,–
"Cc1ccc(Oc2nc3cc(C#Cc4cccc(F)c4)c(Cl)cc3[nH]2)cc1C(=O)O [Example 111, 5-[6-Chloro-5-(3-fluoro-phenylethynyl)-1H-benzoimidazol-2-yloxy]-2-methyl-benzoic acid]",< 10,–
"Cc1ccc(Oc2nc3cc(C#Cc4ccc(Cl)cc4)c(Cl)cc3[nH]2)cc1C(=O)O [Example 112, 5-[6-Chloro-5-(4-chloro-phenylethynyl)-1H-benzoimidazol-2-yloxy]-2-methyl-benzoic acid]",< 10,–
"Cc1ccc(Oc2nc3cc(C#Cc4ccc(F)cc4)c(Cl)cc3[nH]2)cc1C(=O)O [Example 113, 5-[6-Chloro-5-(4-fluoro-phenylethynyl)-1H-benzoimidazol-2-yloxy]-2-methyl-benzoic acid]",< 10,–
"COC(=O)c1cc(Oc2nc3cc(C#Cc4ccc(F)cc4)c(Cl)cc3[nH]2)ccc1C [Example 114, 5-[6-Chloro-5-(4-fluoro-phenylethynyl)-1H-benzoimidazol-2-yloxy]-2-methyl-benzoic acid methyl ester]",< 10,–
"Cc1ccc(Oc2nc3cc(C#Cc4ccccc4Cl)c(Cl)cc3[nH]2)cc1C(=O)O [Example 115, 5-[6-Chloro-5-(2-chloro-phenylethynyl)-1H-benzoimidazol-2-yloxy]-2-methyl-benzoic acid]",< 10,–
"Cc1ccc(Oc2nc3cc(C#Cc4ccc(O)cc4)c(Cl)cc3[nH]2)cc1C(=O)O [Example 116, 5-[6-Chloro-5-(4-hydroxy-phenylethynyl)-1H-benzoimidazol-2-yloxy]-2-methyl-benzoic acid]",< 10,–
"COC(=O)c1cc(Oc2nc3cc(C#Cc4ccc(OC(C)=O)cc4)c(Cl)cc3[nH]2)ccc1C [Example 117, 5-[5-(4-Acetoxy-phenylethynyl)-6-chloro-1H-benzoimidazol-2-yloxy]-2-methyl-benzoic acid methyl ester]",< 10,–
"Cc1ccc(Oc2nc3cc(C#Cc4ccccc4F)c(Cl)cc3[nH]2)cc1C(=O)O [Example 118, 5-[6-Chloro-5-(2-fluoro-phenylethynyl)-1H-benzoimidazol-2-yloxy]-2-methyl-benzoic acid]",< 10,greater than 80%
"COC(=O)c1cc(Oc2nc3cc(C#Cc4ccccc4F)c(Cl)cc3[nH]2)ccc1C [Example 119, 5-[6-Chloro-5-(2-fluoro-phenylethynyl)-1H-benzoimidazol-2-yloxy]-2-methyl-benzoic acid methyl ester]",< 10,–
"Cc1ccc(Oc2nc3cc(C#Cc4ccc(-c5cnco5)cc4)c(Cl)cc3[nH]2)cc1C(=O)O [Example 120, 5-[6-Chloro-5-(4-oxazol-5-yl-phenylethynyl)-1H-benzoimidazol-2-yloxy]-2-methyl-benzoic acid]",< 10,–
"COc1ccc(C#Cc2cc3nc(Oc4ccc(C)c(C(=O)O)c4)[nH]c3cc2Cl)cc1 [Example 121, 5-[6-Chloro-5-(4-methoxy-phenylethynyl)-1H-benzoimidazol-2-yloxy]-2-methyl-benzoic acid]",< 10,–
"COC(=O)c1cc(Oc2nc3cc(C#Cc4ccc(OC)cc4)c(Cl)cc3[nH]2)ccc1C [Example 122, 5-[6-Chloro-5-(4-methoxy-phenylethynyl)-1H-benzoimidazol-2-yloxy]-2-methyl-benzoic acid methyl ester]",< 10,–
"COC(=O)c1cc(Oc2nc3cc(C#Cc4ccc(-c5cnco5)cc4)c(Cl)cc3[nH]2)ccc1C [Example 123, 5-[6-Chloro-5-(4-oxazol-5-yl-phenylethynyl)-1H-benzoimidazol-2-yloxy]-2-methyl-benzoic acid methyl ester]",< 10,–
"Cc1ccc(Oc2nc3cc(C#Cc4cccc(O)c4)c(Cl)cc3[nH]2)cc1C(=O)O [Example 124, 5-[6-Chloro-5-(3-hydroxy-phenylethynyl)-1H-benzoimidazol-2-yloxy]-2-methyl-benzoic acid]",< 10,–
"COC(=O)c1cc(Oc2nc3cc(C#Cc4cccc(O)c4)c(Cl)cc3[nH]2)ccc1C [Example 125, 5-[6-Chloro-5-(3-hydroxy-phenylethynyl)-1H-benzoimidazol-2-yloxy]-2-methyl-benzoic acid methyl ester]",< 10,–
"Cc1ccc(Oc2nc3cc(C#Cc4cccc(C(=O)O)c4)c(Cl)cc3[nH]2)cc1C(=O)O [Example 126, 5-[5-(3-Carboxy-phenylethynyl)-6-chloro-1H-benzoimidazol-2-yloxy]-2-methyl-benzoic acid]",< 10,–
"COc1cc(C(=O)O)ccc1C#Cc1cc2nc(Oc3ccc(C)c(C(=O)O)c3)[nH]c2cc1Cl [Example 127, 5-({5-[(4-carboxy-2-methoxyphenyl)ethynyl]-6-chloro-1H benzimidazol-2-yl}oxy)-2-methylbenzoic acid]",< 10,–
"Cc1ccc(Oc2nc3cc(C#Cc4ccc(=O)[nH]c4)c(Cl)cc3[nH]2)cc1C(=O)O [Example 128, 5-[6-Chloro-5-(6-oxo-1,6-dihydro-pyridin-3-ylethynyl)-1H-benzoimidazol-2-yloxy]-2-methyl-benzoic acid]",< 10,–
"COc1ccc(C#Cc2cc3nc(Oc4ccc(C)c(C(=O)O)c4)[nH]c3cc2Cl)cn1 [Example 129, 5-[6-Chloro-5-(6-methoxy-pyridin-3-ylethynyl)-1H-benzoimidazol-2-yloxy]-2-methyl-benzoic acid]",< 10,–
